# Assay results published in PubChem BioAssay AID504467 (National Center for Advancing Translational Sciences (NCATS), 2011).
# Out of some 330,000 compounds screened, about 7,700 (2.3%) were called active. The shares of active, inactive and inconclusive entries below differ from those in the screen. Calls come from the whole dose curve; as a rule, active = well fitted inhibition curve with a large enough effect; inconclusive = small, poorly fitted or top-dose-only effect, or effect the other way; inactive = flat fitted curve, though single readings scatter. A potency beside an inconclusive call is a rough fit, not a confirmed value.
# Assay: qHTS screen for small molecules that inhibit ELG1-dependent DNA repair in human embryonic kidney (HEK293T) cells expressing luciferase-tagged ELG1; note: nearly all actives have a fitted effect of over 55% in size
# Details: HEK293T ELG1-luciferase reporter, luminescence, 16 h, DNA damage induced by 5-fluorouridine; series mostly up to 46.1 µM
# Outline: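 Quantitative HTS, concentration-response format. 2,000 cells/well co-treated with 5-fluorouridine and compound, 16 hr in 5% CO2 at 37 °C; ONE-Glo luminescence read after 30 min.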
# Potency is the fitted concentration of half-maximal effect.
row,Structure (SMILES),Potency
1,CCN(CC(=O)Nc1ccc(NC(C)=O)cc1)C(=O)/C=C/c1ccc([N+](=O)[O-])cc1,"inconclusive: 25.9 µM [inhibitor, single point]"
2,Cc1cc2c(cc1C)-c1c(ssc1=Nc1ccc(S(N)(=O)=O)cc1)C(C)(C)N2,inactive
3,c1ccc(-c2cc(-c3ccccc3)n3ncnc3n2)cc1,inactive
4,O=C(Nc1ccccc1)ON=C1c2ccccc2-c2ccccc21,"inconclusive: 11.2 µM [inhibitor, partial curve, poor fit]"
5,COC(OC)c1nc(SCC(=O)Nc2cccc(Cl)c2)ncc1C(=O)O,"inconclusive: 32.6 µM [activator, partial curve, poor fit]"
6,COCCNC(=O)C1CCCN(S(=O)(=O)c2ccc3c(c2)CC(C)N3C(=O)C2CC2)C1 (stereo unspecified),inactive
7,COc1ccc2cc(CN(Cc3cccnc3)S(=O)(=O)c3ccccc3)c(=O)[nH]c2c1,"inconclusive: 14.6 µM [inhibitor, partial curve, poor fit]"
8,COC(=O)[C@]1(Cc2ccccc2)N[C@H](CN(C)S(=O)(=O)c2ccc(OC(F)(F)F)cc2)[C@@H]2C(=O)N(C)C(=O)[C@@H]21,"inconclusive: 0.206 µM [activator, single point]"
9,CN(C)c1ccc(/C=N/NC(=O)CNC(=O)/C=C/c2ccco2)cc1,inactive
10,COc1ccc(CNC(=O)C(=O)c2cn(CC(=O)N3CCOCC3)c3ccccc23)cc1,"inconclusive: 16.4 µM [activator, single point]"
11,COc1ccc(C(=O)OCC(=O)NC2CCCCCC2)cc1OC,inactive
12,Cc1ccc(-n2c(-c3cccnc3)n[nH]c2=S)c(C)c1,inactive
13,COc1ccc(NC(=O)c2ocnc2C)cc1OC,"inconclusive: 18.4 µM [activator, single point]"
14,CCOC(=O)N1CCN(C(=S)Nc2cc(OC)c(OC)cc2C(=O)OC)CC1,"inconclusive: 14.6 µM [inhibitor, partial curve, poor fit]"
15,Cc1noc(C)c1C(=O)Nc1ccccc1N1CCOCC1,inactive
16,CC(C)(C)NC(=S)NCC1CC1,inactive
17,Cc1cccc(OCCCC(=O)Nc2ccc(N(C)C)cc2)c1,"inconclusive: 16.4 µM [activator, partial curve]"
18,Cc1c(C(=O)N(Cc2ccccc2)Cc2cccs2)cnn1-c1ccc(Cl)cc1,"inconclusive: 6.51 µM [inhibitor, single point]"
19,CCNc1ccc(Br)cc(C(=O)/C=C/c2ccc(Cl)cc2Cl)c1=O,"inconclusive: 29.1 µM [inhibitor, single point]"
20,O=C(NC1CCCCC1)NC1CC2CCC(C1)N2C(=O)NC1CCCCC1 (stereo unspecified),"inconclusive: 32.6 µM [activator, partial curve, poor fit]"
21,Cn1c(C(=O)OC(C(=O)NC2CCCC2)c2ccncc2)cc2sccc21 (stereo unspecified),"inconclusive: 35.5 µM [inhibitor, single point]"
22,CC(=O)N/C(=N/c1nc(C)cc(C)n1)Nc1ccc(C)cc1C,"inconclusive: 20.6 µM [inhibitor, partial curve]"
23,O=C(COc1ccc2c3c(c(=O)oc2c1)CCC3)Nc1ccccn1,"inconclusive: 0.92 µM [activator, full curve]"
24,CN(C)S(=O)(=O)NCC1CCCN(Cc2ccc(-c3ccccc3)cc2)C1 (stereo unspecified),inactive

# Among those listed so far, 3 have a Cl atom:
row,Structure (SMILES),Potency
5,COC(OC)c1nc(SCC(=O)Nc2cccc(Cl)c2)ncc1C(=O)O,"inconclusive: 32.6 µM [activator, partial curve, poor fit]"
18,Cc1c(C(=O)N(Cc2ccccc2)Cc2cccs2)cnn1-c1ccc(Cl)cc1,"inconclusive: 6.51 µM [inhibitor, single point]"
19,CCNc1ccc(Br)cc(C(=O)/C=C/c2ccc(Cl)cc2Cl)c1=O,"inconclusive: 29.1 µM [inhibitor, single point]"

# Further records.

row,Structure (SMILES),Potency
1,CCC(C)NS(=O)(=O)c1ccc(OCC(=O)Nc2ccc3c(c2)OCCO3)cc1 (stereo unspecified),inactive
2,CNC(=S)N/N=C(\C)c1ccc2c(c1)OCO2,"inconclusive: 29.1 µM [activator, partial curve, poor fit]"
3,CC1(C)CC(C(CC(=O)Nc2nccs2)c2ccccc2)CCO1 (stereo unspecified),"inconclusive: 25.9 µM [inhibitor, single point]"
4,CCOc1ccc(Cc2n[nH]c(=S)n2N)cc1,inactive
5,CCN(CC)C(=O)Nc1cnc2ccccc2c1,"inconclusive: 20.6 µM [activator, partial curve]"
6,CN(CC(=O)Nc1ccc(F)c(F)c1F)C(=O)c1ccc(=O)[nH]c1,"inconclusive: 7.3 µM [activator, partial curve]"
7,COc1ccccc1N1CCN(C(c2cccs2)C(C)NS(=O)(=O)c2ccccc2)CC1 (stereo unspecified),"inconclusive: 29.1 µM [inhibitor, single point]"
8,Cc1ccc(C(NC(=O)N2CCOCC2)C(Cl)(Cl)Cl)cc1F (stereo unspecified),inactive
9,COc1cccc(/C=C/C(=O)OCC(=O)N2CCCC2)c1OC,"inconclusive: 25.9 µM [activator, single point]"
10,COc1cc(CNc2ncc(-c3ccc(Br)cc3)n2C)cc(OC)c1O,"inconclusive: 32.6 µM [inhibitor, partial curve, poor fit]"
11,S=C(NCc1ccccc1)N1CCc2ccccc2C1,"inconclusive: 20.6 µM [inhibitor, partial curve, poor fit]"
12,O=C1C=C(Nc2ccccc2C(=O)O)c2ccccc2C1=O,active: 25.9 µM
13,Cc1ccc(NC(=O)CC2SCCNC2=O)cc1Cl (stereo unspecified),"inconclusive: 23.1 µM [activator, partial curve]"
14,O=Cc1cccc(OCc2cccc3ccccc23)c1,"inconclusive: 14.6 µM [activator, partial curve]"
15,Cc1ccccc1NC(=O)c1ccno1,"inconclusive: 18.3 µM [activator, single point]"
16,CC(C)(C)c1ncc(S(=O)(=O)c2ccc(C(F)(F)F)cn2)c(N)n1,inactive
17,CCOC(=O)c1ccc(N/C=C/C(=O)c2ccccc2)cc1,"inconclusive: 29.1 µM [inhibitor, single point]"
18,CCN(CC)S(=O)(=O)c1cc(NC(=O)CCc2c(C)noc2C)ccc1C,"inconclusive: 32.6 µM [inhibitor, single point]"
19,O/N=C/c1cn(-c2ccccc2)nc1-c1cccnc1,inactive
20,NNc1nc(NCc2ccccc2)nc(N2CCOCC2)n1,"inconclusive: 29.1 µM [inhibitor, single point]"
21,COc1ccc(CC2(C)OC(c3ccc([N+](=O)[O-])cc3)=NN2C(C)=O)cc1 (stereo unspecified),"inconclusive: 18.3 µM [inhibitor, partial curve]"
22,Cc1ccccc1Cn1c(=N)n(CC(=O)c2ccco2)c2ccccc21,"inconclusive: 18.4 µM [inhibitor, partial curve]"
23,CCC(=O)N1CCC(c2ccc(OC)cc2)=N1,"inconclusive: 20.6 µM [activator, partial curve]"
24,O=C(NCc1ccccc1)c1ccc(CSc2ccccc2)o1,inactive

row,Structure (SMILES),Potency
1,COCC(=O)N(C)c1nnc(-c2ccc([N+](=O)[O-])cc2)s1,inactive
2,COc1ccc(OC)c2sc(NC(=O)c3ccc(S(=O)(=O)N4CCOCC4)cc3)nc12,"inconclusive: 29.1 µM [activator, single point]"
3,O=S(=O)(Nc1ccc(-c2ccc3nncn3n2)cc1)c1ccccc1F,"inconclusive: 5.17 µM [activator, single point]"
4,[O-]/[N+](=C/c1ccc(F)cc1)c1ccc(Cl)cc1,"inconclusive: 14.6 µM [activator, partial curve]"
5,CC1(C)Cc2c(c(N3CCOCC3)nc3sc(C(=O)Nc4ccc(Cl)cc4)c(N)c23)CO1,active: 0.92 µM
6,N#CCC(=O)Nc1ccc(C(=O)OCC(=O)NCc2ccc3c(c2)OCO3)cc1,"inconclusive: 1.83 µM [inhibitor, single point]"
7,Cc1ccc(-c2csc(NC(=O)Cc3ccc(F)cc3)n2)o1,inactive
8,COc1ccc(CCNC(=O)c2cc(C3CC3)nc3c2cnn3C(C)C)cc1OC,"inconclusive: 16.4 µM [inhibitor, single point]"
9,COc1ccccc1-c1cnn2c(NCc3ccccc3)cc(C)nc12,inactive
10,O=C(NC(=O)c1ccccc1)Nc1ccccc1,"inconclusive: 1.03 µM [activator, full curve]"
11,O=C(NC1CCCCC1)c1cc(S(=O)(=O)N2CCN(c3ccccc3)CC2)ccc1Cl,"inconclusive: 5.8 µM [inhibitor, full curve]"
12,O=C(NC(=S)Nc1ccc(Br)cn1)c1cccs1,"inconclusive: 8.2 µM [activator, partial curve]"
13,NC(=O)c1cc(-c2ccccc2)nc(N2CCOCC2)n1,"inconclusive: 23.1 µM [inhibitor, single point]"
14,COc1ccc2cc(/C=N/NC(=O)CN(c3ccccc3)S(=O)(=O)c3ccccc3)c(Cl)nc2c1,"inconclusive: 14.6 µM [inhibitor, partial curve, poor fit]"
15,CCCNC(=O)Nc1nnc(C2CC2)s1,"inconclusive: 18.3 µM [activator, single point]"
16,O=C(NC(NC(=S)Nc1cc(Cl)ccc1Cl)C(Cl)(Cl)Cl)c1ccco1 (stereo unspecified),inactive
17,O=C(O)c1cc(N2CCOCC2)nc2ccccc12,inactive
18,CCOc1ccc(N2CC(C(=O)NC3CCCC3)CC2=O)cc1 (stereo unspecified),inactive
19,COc1ccc(/C(C#N)=C/c2ccccn2)cc1,"inconclusive: 9.2 µM [activator, partial curve]"
20,CCC1=C(OC(=O)N(CC)CC)N2C(=O)OC(=NCC3CC3)[C@]2(Cc2ccccc2)[C@H]2C1=CC[C@H]1C(=O)N(CC)C(=O)[C@H]12,inactive
21,COc1ccc(Nc2nc(-c3ccc4c(c3)NC(=O)CO4)cs2)cc1,active: 16.4 µM
22,Cc1ccc(C)c(NC(=O)c2ccc(OC(=O)c3ccco3)cc2)c1,"inconclusive: 25.9 µM [activator, single point]"
23,Cc1ccccc1C(=O)NCC(=O)Nc1ccc(C)c(S(=O)(=O)N2CCCCCC2)c1,"inconclusive: 29.1 µM [inhibitor, single point]"
